# ± gives the standard deviation of the averaged measurements. This is one part of the list.
# Chains of the proteins cited; added tags and fusions are not shown. Lines headed by an entry give the natural chain unless they say otherwise; changes in a name come on top.
# UniProt Q7Z2Z2: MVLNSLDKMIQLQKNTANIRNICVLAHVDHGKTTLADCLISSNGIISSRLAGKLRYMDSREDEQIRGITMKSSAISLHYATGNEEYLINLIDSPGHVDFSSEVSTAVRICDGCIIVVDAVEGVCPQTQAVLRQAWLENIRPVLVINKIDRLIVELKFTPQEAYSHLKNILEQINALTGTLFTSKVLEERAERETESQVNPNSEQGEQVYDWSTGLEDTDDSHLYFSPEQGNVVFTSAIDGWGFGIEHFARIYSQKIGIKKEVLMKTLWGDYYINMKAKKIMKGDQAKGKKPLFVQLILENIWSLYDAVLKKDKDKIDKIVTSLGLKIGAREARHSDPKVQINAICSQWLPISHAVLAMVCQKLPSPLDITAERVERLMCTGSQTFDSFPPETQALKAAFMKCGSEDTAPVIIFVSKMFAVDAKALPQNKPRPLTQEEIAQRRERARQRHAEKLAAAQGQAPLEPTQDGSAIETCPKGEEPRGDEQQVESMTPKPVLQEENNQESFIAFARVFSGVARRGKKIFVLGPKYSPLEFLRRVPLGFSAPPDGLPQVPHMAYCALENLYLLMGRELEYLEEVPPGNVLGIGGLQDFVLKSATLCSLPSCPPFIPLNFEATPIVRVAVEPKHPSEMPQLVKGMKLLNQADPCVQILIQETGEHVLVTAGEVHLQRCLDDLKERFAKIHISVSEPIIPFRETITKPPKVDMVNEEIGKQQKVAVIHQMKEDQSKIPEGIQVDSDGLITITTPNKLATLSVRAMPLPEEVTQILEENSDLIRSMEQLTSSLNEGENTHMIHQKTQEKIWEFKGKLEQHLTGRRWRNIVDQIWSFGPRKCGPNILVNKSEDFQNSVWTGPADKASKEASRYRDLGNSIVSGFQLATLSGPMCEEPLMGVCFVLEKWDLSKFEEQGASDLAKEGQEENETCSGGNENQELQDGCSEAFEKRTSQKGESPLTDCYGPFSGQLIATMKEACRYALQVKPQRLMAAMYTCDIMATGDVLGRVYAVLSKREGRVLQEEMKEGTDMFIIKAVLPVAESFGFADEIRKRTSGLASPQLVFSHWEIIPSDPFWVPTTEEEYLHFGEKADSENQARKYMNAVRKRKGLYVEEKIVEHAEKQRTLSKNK
# UniProt Q86V48: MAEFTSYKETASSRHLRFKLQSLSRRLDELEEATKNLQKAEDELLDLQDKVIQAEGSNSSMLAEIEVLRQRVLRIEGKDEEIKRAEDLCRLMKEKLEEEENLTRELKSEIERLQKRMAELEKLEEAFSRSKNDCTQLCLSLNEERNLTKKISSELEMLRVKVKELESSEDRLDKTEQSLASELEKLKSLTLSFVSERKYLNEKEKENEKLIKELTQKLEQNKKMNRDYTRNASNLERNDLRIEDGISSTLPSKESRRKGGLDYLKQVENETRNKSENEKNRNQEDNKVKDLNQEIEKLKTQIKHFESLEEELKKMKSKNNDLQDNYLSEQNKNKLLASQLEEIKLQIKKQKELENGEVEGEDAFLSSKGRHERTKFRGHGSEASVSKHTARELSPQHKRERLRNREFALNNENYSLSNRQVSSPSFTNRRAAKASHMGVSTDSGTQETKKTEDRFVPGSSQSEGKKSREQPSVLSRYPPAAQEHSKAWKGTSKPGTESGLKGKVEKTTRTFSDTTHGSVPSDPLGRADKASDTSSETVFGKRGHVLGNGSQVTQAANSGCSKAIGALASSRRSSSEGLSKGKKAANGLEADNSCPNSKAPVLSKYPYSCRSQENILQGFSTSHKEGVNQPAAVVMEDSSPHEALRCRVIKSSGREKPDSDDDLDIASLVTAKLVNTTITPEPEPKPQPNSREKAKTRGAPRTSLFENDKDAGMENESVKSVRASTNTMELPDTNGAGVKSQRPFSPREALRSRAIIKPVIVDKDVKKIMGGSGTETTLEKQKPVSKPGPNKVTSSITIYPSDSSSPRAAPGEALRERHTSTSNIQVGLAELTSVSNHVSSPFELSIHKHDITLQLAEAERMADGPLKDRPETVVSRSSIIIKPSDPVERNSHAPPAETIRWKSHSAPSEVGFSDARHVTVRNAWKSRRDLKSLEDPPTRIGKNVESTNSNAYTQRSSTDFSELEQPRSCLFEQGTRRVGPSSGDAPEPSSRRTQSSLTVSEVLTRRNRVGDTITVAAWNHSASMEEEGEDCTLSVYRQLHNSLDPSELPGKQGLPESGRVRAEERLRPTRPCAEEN
# UniProt Q86U90: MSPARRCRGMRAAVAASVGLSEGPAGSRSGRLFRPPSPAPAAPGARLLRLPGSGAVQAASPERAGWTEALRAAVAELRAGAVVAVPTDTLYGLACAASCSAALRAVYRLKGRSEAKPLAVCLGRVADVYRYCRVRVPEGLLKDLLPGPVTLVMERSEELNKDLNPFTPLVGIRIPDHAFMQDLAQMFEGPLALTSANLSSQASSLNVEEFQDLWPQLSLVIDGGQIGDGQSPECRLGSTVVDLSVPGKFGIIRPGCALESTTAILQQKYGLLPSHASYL
# UniProt Q5VT52: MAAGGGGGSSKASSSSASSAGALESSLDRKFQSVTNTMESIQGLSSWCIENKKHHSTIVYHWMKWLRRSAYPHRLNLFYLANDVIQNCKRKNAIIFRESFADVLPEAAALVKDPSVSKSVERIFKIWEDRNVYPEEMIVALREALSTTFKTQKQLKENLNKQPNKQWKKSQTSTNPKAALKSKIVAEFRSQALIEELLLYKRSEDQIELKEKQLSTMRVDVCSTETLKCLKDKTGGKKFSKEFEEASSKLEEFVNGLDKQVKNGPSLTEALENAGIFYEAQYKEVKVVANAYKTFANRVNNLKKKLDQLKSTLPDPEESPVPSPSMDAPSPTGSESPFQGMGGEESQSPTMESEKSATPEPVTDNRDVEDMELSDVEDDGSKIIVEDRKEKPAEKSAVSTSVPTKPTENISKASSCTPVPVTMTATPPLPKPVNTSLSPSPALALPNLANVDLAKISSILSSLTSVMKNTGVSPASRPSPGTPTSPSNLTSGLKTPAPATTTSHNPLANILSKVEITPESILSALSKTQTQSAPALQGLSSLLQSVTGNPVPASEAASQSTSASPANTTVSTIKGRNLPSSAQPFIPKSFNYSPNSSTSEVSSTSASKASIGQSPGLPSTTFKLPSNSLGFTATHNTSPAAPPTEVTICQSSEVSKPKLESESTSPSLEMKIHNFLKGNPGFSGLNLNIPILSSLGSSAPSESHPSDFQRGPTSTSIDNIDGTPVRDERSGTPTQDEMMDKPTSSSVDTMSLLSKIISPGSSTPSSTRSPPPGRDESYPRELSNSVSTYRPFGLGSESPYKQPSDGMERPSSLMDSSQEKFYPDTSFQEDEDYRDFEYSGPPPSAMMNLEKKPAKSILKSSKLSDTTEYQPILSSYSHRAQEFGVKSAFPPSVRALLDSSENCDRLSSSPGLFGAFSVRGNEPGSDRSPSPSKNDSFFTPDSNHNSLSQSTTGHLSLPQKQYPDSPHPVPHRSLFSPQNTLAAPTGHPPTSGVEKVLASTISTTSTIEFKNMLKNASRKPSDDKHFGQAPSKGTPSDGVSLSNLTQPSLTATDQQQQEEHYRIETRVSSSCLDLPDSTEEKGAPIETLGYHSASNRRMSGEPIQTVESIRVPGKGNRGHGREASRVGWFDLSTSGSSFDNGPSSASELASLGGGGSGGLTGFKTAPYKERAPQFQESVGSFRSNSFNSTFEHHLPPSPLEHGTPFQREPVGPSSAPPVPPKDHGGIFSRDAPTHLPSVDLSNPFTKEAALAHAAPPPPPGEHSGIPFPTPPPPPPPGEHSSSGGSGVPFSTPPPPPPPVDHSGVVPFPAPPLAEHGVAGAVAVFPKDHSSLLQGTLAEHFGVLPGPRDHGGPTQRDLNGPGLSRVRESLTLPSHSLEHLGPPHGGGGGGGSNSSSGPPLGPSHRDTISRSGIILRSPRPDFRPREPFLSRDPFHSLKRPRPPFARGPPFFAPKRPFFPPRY
# UniProt Q5VWZ2: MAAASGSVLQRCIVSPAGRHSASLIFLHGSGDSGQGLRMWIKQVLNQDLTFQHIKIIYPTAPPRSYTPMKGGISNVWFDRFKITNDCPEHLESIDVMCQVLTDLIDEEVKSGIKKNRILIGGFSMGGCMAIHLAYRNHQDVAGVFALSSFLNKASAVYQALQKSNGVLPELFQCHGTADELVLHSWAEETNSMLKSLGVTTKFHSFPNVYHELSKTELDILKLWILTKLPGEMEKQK
# UniProt Q6P996: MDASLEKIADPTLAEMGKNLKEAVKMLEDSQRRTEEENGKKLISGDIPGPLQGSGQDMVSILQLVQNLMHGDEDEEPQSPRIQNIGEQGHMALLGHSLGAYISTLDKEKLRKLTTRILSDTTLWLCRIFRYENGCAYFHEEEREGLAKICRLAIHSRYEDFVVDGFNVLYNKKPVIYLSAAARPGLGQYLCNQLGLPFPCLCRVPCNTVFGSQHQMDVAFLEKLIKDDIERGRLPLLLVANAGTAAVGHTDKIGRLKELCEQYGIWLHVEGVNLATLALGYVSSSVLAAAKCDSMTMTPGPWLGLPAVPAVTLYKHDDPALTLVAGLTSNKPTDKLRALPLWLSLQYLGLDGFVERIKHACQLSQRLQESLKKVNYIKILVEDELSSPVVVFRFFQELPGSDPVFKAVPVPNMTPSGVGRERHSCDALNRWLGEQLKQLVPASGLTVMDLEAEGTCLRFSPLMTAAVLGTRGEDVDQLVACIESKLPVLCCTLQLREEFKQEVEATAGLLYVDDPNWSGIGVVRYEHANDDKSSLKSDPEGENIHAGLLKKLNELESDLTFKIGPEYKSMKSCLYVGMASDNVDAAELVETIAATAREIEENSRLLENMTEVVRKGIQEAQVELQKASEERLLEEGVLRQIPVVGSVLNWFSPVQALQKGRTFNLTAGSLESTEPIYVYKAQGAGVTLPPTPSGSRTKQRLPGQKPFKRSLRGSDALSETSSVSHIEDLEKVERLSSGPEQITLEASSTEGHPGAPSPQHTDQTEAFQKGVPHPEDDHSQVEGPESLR
# UniProt Q86UX7, whole entry: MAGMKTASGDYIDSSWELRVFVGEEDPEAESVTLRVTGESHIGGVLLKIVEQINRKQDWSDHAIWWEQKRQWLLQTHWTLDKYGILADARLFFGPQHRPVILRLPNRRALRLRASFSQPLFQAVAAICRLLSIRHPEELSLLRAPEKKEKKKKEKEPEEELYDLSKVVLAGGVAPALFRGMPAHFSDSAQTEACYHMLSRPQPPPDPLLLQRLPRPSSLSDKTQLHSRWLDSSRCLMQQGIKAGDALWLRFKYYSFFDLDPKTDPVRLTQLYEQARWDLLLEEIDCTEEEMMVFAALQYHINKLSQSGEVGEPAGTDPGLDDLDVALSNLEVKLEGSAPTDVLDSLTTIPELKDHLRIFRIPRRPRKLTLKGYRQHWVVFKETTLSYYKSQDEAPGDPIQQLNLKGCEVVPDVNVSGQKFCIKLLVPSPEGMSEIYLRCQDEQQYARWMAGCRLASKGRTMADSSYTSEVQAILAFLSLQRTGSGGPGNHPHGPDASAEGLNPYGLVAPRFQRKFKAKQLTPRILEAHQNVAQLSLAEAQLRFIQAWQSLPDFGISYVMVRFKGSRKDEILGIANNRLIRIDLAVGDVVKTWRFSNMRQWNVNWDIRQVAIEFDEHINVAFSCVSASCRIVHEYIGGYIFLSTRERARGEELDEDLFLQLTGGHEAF
# UniProt Q6P587: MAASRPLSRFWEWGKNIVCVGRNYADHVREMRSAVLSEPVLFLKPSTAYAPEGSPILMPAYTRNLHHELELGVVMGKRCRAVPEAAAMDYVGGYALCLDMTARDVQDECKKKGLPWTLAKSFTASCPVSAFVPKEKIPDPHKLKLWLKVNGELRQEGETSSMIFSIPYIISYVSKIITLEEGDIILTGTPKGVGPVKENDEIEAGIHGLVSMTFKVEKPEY
# UniProt Q6UXH1: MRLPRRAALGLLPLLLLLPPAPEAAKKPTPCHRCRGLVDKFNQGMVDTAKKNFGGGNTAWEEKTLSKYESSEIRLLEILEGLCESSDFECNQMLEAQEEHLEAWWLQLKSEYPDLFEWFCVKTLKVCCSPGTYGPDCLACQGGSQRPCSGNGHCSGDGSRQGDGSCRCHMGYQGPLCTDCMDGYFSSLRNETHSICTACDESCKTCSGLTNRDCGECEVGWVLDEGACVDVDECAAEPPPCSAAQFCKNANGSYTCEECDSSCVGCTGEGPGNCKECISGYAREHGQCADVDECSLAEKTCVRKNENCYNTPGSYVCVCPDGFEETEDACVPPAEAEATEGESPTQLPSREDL
# Compound: Nc1nc2c(ncn2[C@@H]2O[C@H](COP(=O)(O)OP(=O)(O)OP(=O)(O)O)[C@@H](O)[C@H]2O)c(=O)[nH]1 [guanosine triphosphate]
# Test: NP40-soluble protein abundance relative to vehicle (solubility fold change) (ratio); higher = more soluble protein in presence of GTP
# Method in brief: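 Crude Jurkat lysate, prepared by Dounce homogenisation, was exposed to eight concentrations from 0.1 to 10 mM for 10 min at room temperature and then 3 min at 37 °C. Solubilisation used 0.8% NP40 with benzonase for 60 min at 4 °C, followed by ultracentrifugation and TMT labelling of the supernatant for LC-MS/MS. After vsn normalisation of intensities, each value is the fold change against the detergent-processed vehicle within each replicate, across three independent experiments.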
Target,NP40-soluble protein abundance (concentration: 0.1mM),NP40-soluble protein abundance (concentration: 0.5mM),NP40-soluble protein abundance (concentration: 1mM),NP40-soluble protein abundance (concentration: 2mM),NP40-soluble protein abundance (concentration: 4mM),NP40-soluble protein abundance (concentration: 6mM),NP40-soluble protein abundance (concentration: 8mM),NP40-soluble protein abundance (concentration: 10mM)
UniProt Q7Z2Z2,1.02 ± 0.041,1.01 ± 0.015,0.955 ± 0.037,0.944 ± 0.044,0.93 ± 0.052,0.944 ± 0.035,0.91 ± 0.037,0.91 ± 0.044
UniProt Q5VZE5,1.04 ± 0.025,1.08 ± 0.016,1.01 ± 0.021,1.01 ± 0.059,0.99 ± 0.058,0.982 ± 0.018,1.01 ± 0.014,0.964 ± 0.021
UniProt Q7Z5J4 and related entries,1 ± 0.039,1.03 ± 0.049,1.07 ± 0.034,1.1 ± 0.068,1.1 ± 0.036,1.16 ± 0.024,1.24 ± 0.11,1.3 ± 0.15
TSEN54 (UniProt Q7Z6J9),1 ± 0.049,1 ± 0.031,0.977 ± 0.063,0.995 ± 0.074,0.992 ± 0.063,0.97 ± 0.067,1.06 ± 0.032,1.03 ± 0.047
UniProt Q86V48 and related entries,0.953 ± 0.056,0.967 ± 0.042,1.01 ± 0.051,0.99 ± 0.097,1.03 ± 0.088,1.08 ± 0.081,1.17 ± 0.1,1.2 ± 0.11
YRDC (UniProt Q86U90),0.989 ± 0.041,0.952 ± 0.022,0.949 ± 0.027,0.943 ± 0.015,0.946 ± 0.041,0.899 ± 0.026,0.871 ± 0.07,0.916 ± 0.055
UniProt Q86U38,1.15 ± 0.21,1.17 ± 0.24,1.26 ± 0.36,1.19 ± 0.29,1.28 ± 0.37,1.35 ± 0.42,1.3 ± 0.27,1.37 ± 0.41
UniProt Q5VT52 and related entries,0.968 ± 0.078,1 ± 0.071,1.04 ± 0.069,1.03 ± 0.084,1.03 ± 0.092,1.03 ± 0.057,1.06 ± 0.07,1.07 ± 0.076
LYPLAL1 (UniProt Q5VWZ2),1.16 ± 0.025,1 ± 0.053,1.04 ± 0.06,0.965 ± 0.078,1.03 ± 0.1,0.907 ± 0.073,0.959 ± 0.083,0.875 ± 0.12
FAM160B1 (UniProt Q5W0V3),1.03 ± 0.037,1.03 ± 0.027,0.964 ± 0.029,0.959 ± 0.02,0.9389 ± 0.0083,0.922 ± 0.0022,0.91 ± 0.033,0.894 ± 0.051
UniProt Q6P996 and related entries,1.01 ± 0.04,1.01 ± 0.056,1.03 ± 0.055,0.932 ± 0.032,0.967 ± 0.049,0.962 ± 0.048,0.978 ± 0.06,0.956 ± 0.065
UniProt Q86UX7 and related entries,1.07 ± 0.067,1.05 ± 0.11,0.935 ± 0.067,0.959 ± 0.14,0.968 ± 0.11,0.92 ± 0.096,0.865 ± 0.058,0.837 ± 0.1
MRPL14 (UniProt Q6P1L8),0.994 ± 0.31,1.04 ± 0.29,1.36 ± 0.3,1.32 ± 0.22,1.43 ± 0.3,1.35 ± 0.36,1.29 ± 0.36,1.25 ± 0.29
UniProt Q6P587 and related entries,0.936 ± 0.056,0.933 ± 0.022,0.915 ± 0.023,0.796 ± 0.01,0.865 ± 0.071,0.858 ± 0.092,0.829 ± 0.026,0.843 ± 0.083
UniProt Q6UXH1 and related entries,0.968 ± 0.018,0.941 ± 0.046,1.03 ± 0.09,0.959 ± 0.093,0.935 ± 0.096,0.959 ± 0.12,0.95 ± 0.061,0.956 ± 0.088

# Record cards, as listed above. Order of values: NP40-soluble protein abundance (concentration: 0.1mM) | NP40-soluble protein abundance (concentration: 0.5mM) | NP40-soluble protein abundance (concentration: 1mM) | NP40-soluble protein abundance (concentration: 2mM) | NP40-soluble protein abundance (concentration: 4mM) | NP40-soluble protein abundance (concentration: 6mM) | NP40-soluble protein abundance (concentration: 8mM) | NP40-soluble protein abundance (concentration: 10mM)
# UniProt Q6UXH1 and related entries is listed as 0.968 ± 0.018 | 0.941 ± 0.046 | 1.03 ± 0.09 | 0.959 ± 0.093 | 0.935 ± 0.096 | 0.959 ± 0.12 | 0.95 ± 0.061 | 0.956 ± 0.088
# YRDC (UniProt Q86U90) is listed as 0.989 ± 0.041 | 0.952 ± 0.022 | 0.949 ± 0.027 | 0.943 ± 0.015 | 0.946 ± 0.041 | 0.899 ± 0.026 | 0.871 ± 0.07 | 0.916 ± 0.055

# From the supplement of paper PMC6411743
